Results on seven molecules are retold here after publication doi:10.1101/2023.03.07.531595.

The chains are these.
T1: Tld1-mNeonGreen (Saccharomyces cerevisiae) (UniProt Q05611)
T1 sequence: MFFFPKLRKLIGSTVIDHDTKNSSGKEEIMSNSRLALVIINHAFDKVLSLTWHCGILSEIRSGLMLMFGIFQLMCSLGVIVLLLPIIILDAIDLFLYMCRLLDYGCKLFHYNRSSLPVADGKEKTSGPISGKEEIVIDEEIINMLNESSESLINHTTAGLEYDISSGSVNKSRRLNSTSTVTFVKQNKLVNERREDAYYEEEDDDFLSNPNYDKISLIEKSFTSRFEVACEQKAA

B1: Tgl4 (enzyme, UniProt P36165 1-910)
chain: MSSKISDLTSTQNKPLLVTQQLIEKYYEQILGTSQNIIPILNPKNKFIRPSKDNSDVERVEEDAGKRLQTGKNKTTNKVNFNLDTGNEDKLDDDQETVTENENNDIEMVETDEGEDERQGSSLASKCKSFLYNVFVGNYERDILIDKVCSQKQHAMSFEEWCSAGARLDDLTGKTEWKQKLESPLYDYKLIKDLTSRMREERLNRNYAQLLYIIRTNWVRNLGNMGNVNLYRHSHVGTKYLIDEYMMESRLALESLMESDLDDSYLLGILQQTRRNIGRTALVLSGGGTFGLFHIGVLGTLFELDLLPRVISGSSAGAIVASILSVHHKEEIPVLLNHILDKEFNIFKDDKQKSESENLLIKISRFFKNGTWFDNKHLVNTMIEFLGDLTFREAYNRTGKILNITVSPASLFEQPRLLNNLTAPNVLIWSAVCASCSLPGIFPSSPLYEKDPKTGERKPWTGSSSVKFVDGSVDNDLPISRLSEMFNVDHIIACQVNIHVFPFLKLSLSCVGGEIEDEFSARLKQNLSSIYNFMANEAIHILEIGSEMGIAKNALTKLRSVLSQQYSGDITILPDMCMLFRIKELLSNPTKEFLLREITNGAKATWPKVSIIQNHCGQEFALDKAISYIKGRMIVTSSLKTPFQFADSVIGLIKAPEQTSDESKNPENSTLLTRTPTKGDNHISNVLDDNLLESESTNSLLLLRENASTYGRSPSGFRPRYSITSASLNPRHQRRKSDTISTSRRPAKSFSFSVASPTSRMLRQSSKINGHPPPILQKKTSMGRLMFPMDAKTYDPESHELIPHSASIETPAMVDKKLHFGRKSRYLRHMNKKWVSSSNILYTDSDKEDHPTLRLISNFDSDAMIHSDLAGNFRRHSIDGRPPSQATKSSPFRSRPSSSTQHKSTTSFTQ
B2: Tgl3 (enzyme, UniProt P40308 1-642)
chain: MKETAQEYKVSAVIPTLLKNWILRVVYATLDHIPPFVWEILHVITDIYFFWVQKLINYVRPHSRVIYYNAIKKLDECDTYQMWCQQASVVDEITGANLWRRNFFSRRYDFNSVIEQYSILENMLREEKYDVVKEKFSTTGPCMLRNFAGIGDKKLFTKSLMGTKLLIEQYLTRILEGLDILNNQTLTPTSFFQRCKLSLGTTALILQGGSLFGLFHLGVIRGLLLQDLMPNIISGSSMGACVASLFGCLSNEQLKQLLTDDNLLNIIKNDVDLLKSCGYGNLEQHLNLGTLIQNLIHHGYSQDVYLFIRFVMKYIVKEKTFEEVYQITGKVFNIVIHPTDKSCPNLLNYVTTPNVLIKSAIECSLGSGVISEDTSLLCKNLENEIEPFLNINKNKQVKFLTPENANNPSITESPYTRLTELFNVNNFIVSLARPYLAPLVVNDLKHEIKTSKYYYYKHYPNMPPINANTVRKTQRSSSQSPIKAGTVEDLEPEPLMSPVPPSSAVNDSAEYIIPELGIPQLNFTEMEPLAFKFKYHLERKLKNIATMEFRHRMEVLDNLGLLCSLIKRLIIDEKTPRSATEIAVVPRMKSLSLTRIIEGQLNNIPYWIKSGERSTWPALALIKTRCAVEFKLDDIIRARRSR
B3: Eht1 (protein, UniProt P38295 1-451)
chain: MSEVSKWPAINPFHWGYNGTVSHIVGENGSIKLHLKDNKEQVDFDEFANKYVPTLKNGAQFKLSPYLFTGILQTLYLGAADFSKKFPVFYGREIVKFSDGGVCTADWLIDSWKKDYEFDQSTTSFDKKKFDKDEKATHPEGWPRLQPRTRYLKDNELEELREVDLPLVVILHGLAGGSHEPIIRSLAENLSRSGRFQVVVLNTRGCARSKITTRNLFTAYHTMDIREFLQREKQRHPDRKLYAVGCSFGATMLANYLGEEGDKSPLSAAATLCNPWDLLLSAIRMSQDWWSRTLFSKNIAQFLTRTVQVNMGELGVPNGSLPDHPPTVKNPSFYMFTPENLIKAKSFKSTREFDEVYTAPALGFPNAMEYYKAASSINRVDTIRVPTLVINSRDDPVVGPDQPYSIVEKNPRILYCRTDLGGHLAYLDKDNNSWATKAIAEFFTKFDELVV
B4: Faa1 (protein, UniProt P30624 1-700)
chain: MVAQYTVPVGKAANEHETAPRRNYQCREKPLVRPPNTKCSTVYEFVLECFQKNKNSNAMGWRDVKEIHEESKSVMKKVDGKETSVEKKWMYYELSHYHYNSFDQLTDIMHEIGRGLVKIGLKPNDDDKLHLYAATSHKWMKMFLGAQSQGIPVVTAYDTLGEKGLIHSLVQTGSKAIFTDNSLLPSLIKPVQAAQDVKYIIHFDSISSEDRRQSGKIYQSAHDAINRIKEVRPDIKTFSFDDILKLGKESCNEIDVHPPGKDDLCCIMYTSGSTGEPKGVVLKHSNVVAGVGGASLNVLKFVGNTDRVICFLPLAHIFELVFELLSFYWGACIGYATVKTLTSSSVRNCQGDLQEFKPTIMVGVAAVWETVRKGILNQIDNLPFLTKKIFWTAYNTKLNMQRLHIPGGGALGNLVFKKIRTATGGQLRYLLNGGSPISRDAQEFITNLICPMLIGYGLTETCASTTILDPANFELGVAGDLTGCVTVKLVDVEELGYFAKNNQGEVWITGANVTPEYYKNEEETSQALTSDGWFKTGDIGEWEANGHLKIIDRKKNLVKTMNGEYIALEKLESVYRSNEYVANICVYADQSKTKPVGIIVPNHAPLTKLAKKLGIMEQKDSSINIENYLEDAKLIKAVYSDLLKTGKDQGLVGIELLAGIVFFDGEWTPQNGFVTSAQKLKRKDILNAVKDKVDAVYSSS
B5: Erg6 (protein, UniProt P25087 1-383)
chain: MSETELRKRQAQFTRELHGDDIGKKTGLSALMSKNNSAQKEAVQKYLRNWDGRTDKDAEERRLEDYNEATHSYYNVVTDFYEYGWGSSFHFSRFYKGESFAASIARHEHYLAYKAGIQRGDLVLDVGCGVGGPAREIARFTGCNVIGLNNNDYQIAKAKYYAKKYNLSDQMDFVKGDFMKMDFEENTFDKVYAIEATCHAPKLEGVYSEIYKVLKPGGTFAVYEWVMTDKYDENNPEHRKIAYEIELGDGIPKMFHVDVARKALKNCGFEVLVSEDLADNDDEIPWYYPLTGEWKYVQNLANLATFFRTSYLGRQFTTAMVTVMEKLGLAPEGSKEVTAALENAAVGLVAGGKSKLFTPMMLFVARKPENAETPSQTSQEATQ
B6: Tgl5 (enzyme, UniProt Q12043 1-749)
chain: MSNTLPVTEFLLSKYYELSNTPATDSSSLFKWLYHKTLSRKQLLISDLSSQKKHAISYDQWNDIASRLDDLTGLSEWKTIDESSLYNYKLLQDLTIRMRHLRTTHDYHRLLYLIRTKWVRNLGNMNNVNLYRHSHTGTKQIIHDYLEESQAVLTALIHQSNMNDHYLLGILQQTRRNIGRTALVLSGGSTFGLFHIGVLAALFESDLMPKVISGSSAGAIVASIFCVHTTQEIPSLLTNVLNMEFNIFNDDNSKSPNENLLIKISRFCQNGTWFNNQPLINTMLSFLGNLTFREAYNKTGKILNITVSPASIYEQPKLLNNLTAPNVLIWSAVCASCSLPGVFPSTPLFEKDPHTGKIKEWGATNLHLSNMKFMDGSVDNDMPISRLSEMFNVDHIIACQVNIHVFPLLKFSNTCVGGEIEKEITARFRNQVTKIFKFFSDETIHFLDILKELEFHPYLMTKLKHLFLQQYSGNVTILPDLSMVGQFHEVLKNPSQLFLLHQTTLGARATWPKISMIQNNCGQEFALDKAITFLKEKIIISSSIKNPLQFYQPRFSEQIKSLSIMDADLPGVDLEESSSNSLSIIKSPNKTAAPGRFPLQPLPSPSSTFNKRKMDMLSPSPSPSTSPQRSKSSFTQQGTRQKANSLSFAIGASSLRLKKSPLKVPSRPQFKKRSSYYNQNMSAEMRKNRKKSGTISSYDVQTNSEDFPIPAIENGSFDNTLFNPSRFPMDAMSAATNDNFMNNSDIFQN
B7: Hfd1 (protein, UniProt Q04458 1-532)
chain: MSNDGSKILNYTPVSKIDEIVEISRNFFFEKQLKLSHENNPRKKDLEFRQLQLKKLYYAVKDHEEELIDAMYKDFHRNKIESVLNETTKLMNDILHLIEILPKLIKPRRVSDSSPPFMFGKTIVEKISRGSVLIIAPFNFPLLLAFAPLAAALAAGNTIVLKPSELTPHTAVVMENLLTTAGFPDGLIQVVQGAIDETTRLLDCGKFDLIFYTGSPRVGSIVAEKAAKSLTPCVLELGGKSPTFITENFKASNIKIALKRIFFGAFGNSGQICVSPDYLLVHKSIYPKVIKECESVLNEFYPSFDEQTDFTRMIHEPAYKKAVASINSTNGSKIVPSKISINSDTEDLCLVPPTIVYNIGWDDPLMKQENFAPVLPIIEYEDLDETINKIIEEHDTPLVQYIFSDSQTEINRILTRLRSGDCVVGDTVIHVGITDAPFGGIGTSGYGNYGGYYGFNTFSHERTIFKQPYWNDFTLFMRYPPNSAQKEKLVRFAMERKPWFDRNGNNKWGLRQYFSLSAAVILISTIYAHCSS

Results are given in words; binding and its absence hold for the method and conditions named. Binding seen in cells or lysates may run through a third protein. A yes stands for co-enrichment or nearness to the bait. Other partners may have been found. A no says only that the protein was not detected with the bait. Tags and fused reporters may be left off the sequences shown.

This assay concerns the target T1, Tld1-mNeonGreen (Saccharomyces cerevisiae). Briefly: affinity purification with mass spectrometry.
Regarding B1, the binding entry was “no binding”. Consider B2, for which the binding result is “no binding”. In the case of B3, the binding entry is “binds”. As for B4, the binding result is recorded as “binds”. For B5, the binding result is listed as “binds”. B6: the binding result was “no binding”.

On to B7, for which the binding entry is “binds”.
